Literature values, collected in EP4566598A1, “COMPOSITIONS PROVIDING SGLT2I AND BHB ACTIVITY AND METHODS OF USE TO TREAT HUMAN DISEASE” (priority 2023, dated 2025).
For at least one compound, name, drawing or mass did not settle the structure.

Conditions: by elevating BHB; cited from earlier work

## CC(O)CC(=O)O (stereo not drawn) [BHB, beta-hydroxybutyrate]
  glucose uptake: near halving
  increase myocardial blood flow: 75%
